Results are given in words; binding and its absence hold for the method and conditions named.
Biological target: recombinant BoxA domain of HMGB1
Assay: Western blot

B1: mouse anti-HMGB1 monoclonal antibody DPH1.1 (antibody, IgG1, V domains shown)
VH: LLEESGAELVKPGASVKLSCTASGFNIEDTYVHWVKQRPEQGLEWIGRIDPANGNSKYDPKFQGKATLTADTFSNTAYLQLSSLTSEDTAVYYCAVTGTGALDYWGQGT
VL: ELVLTQPPSSLAVSAGEKVTMSCKSSQSVLYSSNQKNYLAWYQQKPGQSPKLLIYWASTRESGVPDRFTGSGSGTDFTLNITNVQPDDLAVYYCHQYLSSVTFGAGTKLELKR
In the case of B1, the binding is reported as “no binding (tested: 500 ng or 100 ng BoxA per lane)”.
